These are yes or no findings as the source states them, for the method shown. In cells and extracts the contact can be indirect. These calls come from enrichment with a bait or labelling near it, and not all partners need be listed. Sequences can lack the tags named with a protein.
Molecular target: T1, PoAce1 fused with the TAP tag (HA-FLAG) at the C-terminus (Penicillium oxalicum) (UniProt S8AYJ0)
T1 sequence: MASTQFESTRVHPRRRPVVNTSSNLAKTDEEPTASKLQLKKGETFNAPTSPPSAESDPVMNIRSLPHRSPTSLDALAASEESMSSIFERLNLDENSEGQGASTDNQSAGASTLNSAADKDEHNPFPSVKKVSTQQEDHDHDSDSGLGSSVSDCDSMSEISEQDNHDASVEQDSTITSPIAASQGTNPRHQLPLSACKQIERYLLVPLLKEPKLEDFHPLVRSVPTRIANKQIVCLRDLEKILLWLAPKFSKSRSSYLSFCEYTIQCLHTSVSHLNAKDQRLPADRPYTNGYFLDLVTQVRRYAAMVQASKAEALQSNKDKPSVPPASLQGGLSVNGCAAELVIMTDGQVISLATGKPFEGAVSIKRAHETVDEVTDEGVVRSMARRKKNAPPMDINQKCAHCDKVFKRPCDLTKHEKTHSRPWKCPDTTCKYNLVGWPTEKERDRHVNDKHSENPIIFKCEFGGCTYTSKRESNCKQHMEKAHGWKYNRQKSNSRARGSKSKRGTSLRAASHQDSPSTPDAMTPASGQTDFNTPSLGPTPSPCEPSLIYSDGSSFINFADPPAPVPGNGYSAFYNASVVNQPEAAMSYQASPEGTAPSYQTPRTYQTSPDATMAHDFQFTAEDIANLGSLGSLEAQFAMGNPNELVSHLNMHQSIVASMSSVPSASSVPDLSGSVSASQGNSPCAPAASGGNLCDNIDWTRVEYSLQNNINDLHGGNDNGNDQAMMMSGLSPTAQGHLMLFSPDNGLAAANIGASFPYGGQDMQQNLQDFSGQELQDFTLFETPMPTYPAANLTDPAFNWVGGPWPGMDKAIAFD
Assay: affinity purification with mass spectrometry; TAP-MS with PoAce1-HA-FLAG as bait from mycelia grown in VMMG; anti-FLAG M2 gel, 3xFLAG peptide elution, then anti-HA resin, 8 M urea elution; LC-MS/MS; WT 114-2 as control; biological triplicates

B1: PoPyc2 (protein, UniProt S7ZK70 1-1193)
chain: MAAPSRQPEEAIDDSEFIEDHEEHHQDSVHRRLRANSTIMHFQKILVANRGEIPIRIFRTAHELSLQTVAVFSHEDRYGMHRQKADEAYMIGKRGQYTPVGAYLAGDEIIKIAVEHGVHLIHPGYGFLSENAEFARNVEKAGIVFVGPTPDTIDALGDKVSARRLAIKCNVPVVPGTEGPVERYEEVKTFTDTYGFPIIIKAAFGGGGRGMRVVREQADLRDAFERATSEARSAFGNGTVFVERFLDKPKHIEVQLLGDNQGNVVHLFERDCSVQRRHQKVVEIAPAKDLPIEVRDKILADAVRLAKSVKYRNAGTAEFLVDQQNRYYFIEINPRIQVEHTITEEITGIDIVAAQIQIAAGATLEQLGLTQDRISTRGFAIQCRITTEDPSKGFSPDTGKIEVYRSAGGNGVRLDGGNGFAGAVITPHYDSMLVKCTCRGSTYEIARRKVLRALVEFRIRGVKTNIPFLASLLSHPTFIDGTCWTTFIDDTPELFALVGSQNRAQKLLAYLGDVAVNGSSIKGQMGEPKLKGEIIKPILTDASGAPIDVSVPCQKGWKQILDREGPAAFAKAVRANKGCLIMDTTWRDAHQSLLATRVRTIDMLNIAHETSHALSNAYSLECWGGATFDVAMRFLYEDPWDRLRKLRKAVPNIPFQMLLRGANGVAYSSLPDNAIYHFCKQAKKYGVDIFRVFDALNDVDQLEVGIKAVQQAGGVVEATICYSGDMLNPHKKYNLEYYLALAEKIVALGTHVLGIKDMAGVLKPQAARILISALRERYPDLPIHVHTHDSAGTGVASMIACAQAGADAVDAATDSLSGMTSQPSIGAILASLSGTEHDPHLDVAQVRALDSYWAQLRLLYSPFEAGLTGPDPEVYEHEIPGGQLTNLIFQASQLGLGQQWAETKKAYEAANDLLGDIVKVTPTSKVVGDLAQFMVSNKLSEQDVVDRAAELDFPGSVLEFLEGLMGQPFGGFPEPLRSRALRNRRKLDKRPGLYLDPLDLPGIKNQIREKFGSATECDVASYAMYPKVFEDYRKFVQKYGDLSVLPTRYFLARPEIGEEFHVELEKGKVLILKLLAIGPLSEQTGQREVFYEVNGEVRQVSVDDNKASVDNVARPKADVGDSSQVGAPMSGVVVEIRVHDGHECKKGDPIAVLSAMKMEMVISAPHSGKVSGLLVKEGDSVDGQDLICRITKA
- binding: binds

B2: PoAsh1 (protein, UniProt S8ALA0 1-797)
chain: MSTHVRVKWQHEPDDTTSLDVPVQLLTPENSRSETSSNNEVTVAEEKVAPRRRSTRVARASLQATEAEEITTPYIEDTAASSSQAYVDSLVEAKRTRSSLRHSIAVMERSNDIAPPDDNTTMADYNPPLPNTPSSNTSQEQPVDEVASSTQQRTLRKRVAKVLAEVAKTPQSETAPQPNLQGPVRKSTRLSLVSKPLDLLERTSAVLGKRSRELSQKSKEPSRRSSLRPRVTAPKQDALASAPEPPAAKKRRVSESDLSKLRDIEAEVPSEEPTAPPPPPRYKPKKWLAHGLYTGQEPSDSPPKQRRSKNSSKTTTRPAQRRLLPMPMFGGARLIQSGRDYVLPFDVFSPLPPGQPKPDEWRKTNKNVFVGDAASEWKANKKLELSTCMCEEDTGCDENCQNRYMFYECDSGNCRLGPECGNRNFSELKHRTKAGGKYNIGVEVIKTSDRGYGVRSNRTFEPNQIIVEYTGEIITQFECERRMRTVYKNNECYYLMYFDQNMIIDATRGSIARFVNHSCEPNCRMEKWTVAGKPRMALFAGDRGIMTGEELSYDYNFDPYSLKNVQQCRCGSENCRGILGPRPKDKDQRAKLEEKAQAEKEAKKPLGKKRKLVDAESTASQKGKKRKVLNAKSIKASVKKVVSKATARGKAGTTKSAKATTTSSRSKTTKAVNLPKVKAASRVKATVEKGPRSKGKAAKTTTASSAKGSSVLKRPSLETKKKILARAKGTSRASPKKSPAKPKKGQTKSPRKPAGKKALAKSPAKSRVPTSKAKRTLAGSVKKVTKSVIRAVKGKSA
- binding: binds

B3: PoMub1 (protein, UniProt S7ZK88 1-574)
chain: MSTFKLRCANSRIQECPNEGTYACASCKLVKYCSRKCQLGHWPAHKAECKDAVGQISWEPAWVADQREPHFFTSEDQPWGLRKRLWSRFPAFDILKLAENEGVTHSQDLQLLFSACGDLGNVVQTLASLPDSWNQGIELTINDADVDCIGRSVVMLLVAMCIDNVNDAVDSMIHIWYSAFIRKSDADMLQSRITPMIRRVCNTIKDQDPNKLYAKTWKRDTFSVKVILKQKSWMDLLGIFDRLGQIKHDAASNSRLKVTMAPHRQDFRDELMMKMPIAQRLAHQKYLLDGLVLPFGHPREEFSEANPFLYRPPCVWQLNDALNPIFGWPLEDVLETPGAASENDVYGKLLNYLRGRLRSCISRMSISPTAFVLYQMNPFRLLEVLDLGYFDRIDATGITDRDPDNPLSALSTYIPLLKDTKRNPCATLILFFETAVKSCISDGFITEEVEQNPRVIEILGRLLPPRMSSFVWEPALLIFSQAISLLISYDEVFIEYLNQRGFEAASKALGAGLKDSNTIISEFPYQVDPQPENQEPFNKLMMRLRESVDGKEVYLEWRREVQSEDRPSDSRGGG
- binding: binds

B4: PDE_00208 (uncharacterized protein) (protein, UniProt S7Z423 1-890)
chain: MELSRQEYPALLATLHPTQASTVLTDRIRLINKINSDIADFLQERRRVEEAYAQGLRKLASRPPVDNGVAMGIFQIPWQRIINATETLATSHETLATKIEEDVERPLREYSAKNAEMQSMPGVQNNLSSLAKNLEAAQKKVDKAKGKGTKGASSLSGAIAAAEEVNQQWESRAPFVYEQLQAADESRLNHLRDVLTQLETHELDQVERCREAAESCLNVLLNVQTADEIKTFAAKMAGKRAQFTPRLSSRQNSQADVNPAASIAPSTADSEAPTAPPAAAPLAPPSRIQDDAASQRSGRSETLAPAGTSSQTPPAPEPLPRHTPLGGLRRLGTVMNRRKSVVPPMGGSSDRKAEKKHRSPFSSFMRSDSSREAQIPESPPSTADRPGTSLTEESSLRNENISHDTDTVGAMAPTFASQPETSAPNENTPRSEEISMTNGTSQLQPSQPNVDSEGFTERPSSVDEITRAQREASAVEDSGVNLTIRDQPIFEDESQAKKAMDDMANTLRMRAPQPGIRRNAGTLRGRRDVRNTVFVPNAGADMTGSSAGSDQFGPSSPRHAASPTNTIDDHAMSDTTSVRSGHTAHSLGPSIHPELHEPGLNASIIETVSAWLFEGKVTKSSVVGELALANNPQPGHSVGKVLIRLDNFASLEKVAANPHFVHESNGEGIEDKRGEYEIQLGSISRSMPTVAFKYQVHIDPMNPSAYSPVIFKPAWNIEENQASAIIFYSLNPSFISASAGSITLKNVALTVALDVAPEDEVTKQPRESVAHAASAVMYPNSGAVFRRKTSSVIWKIPELEVKAPGSGGEDGKFLVRFTTTTPGPRKGNVEARFEFTNTETGSRLGISRAPAQASESEVDPFADSGKLPSPSPWESVPTTRKLVAGKYVSA
- binding: binds

B5: PDE_05998 (uncharacterized protein) (protein, UniProt S7ZL42 1-846)
chain: MELSRQVLSTGWSFRDRDGEEWMPVKAVPSVVQQDLMNNNKLDDPFIGFNELKARWVNEKSWVYRNTFKRPQVPEGCSIDLVFDGLDTFATVKLDGNVILQSDNMFLGHRVNVTEALEAEGDHVLEIEFDCALQRAREIKAEHPDHVWVGFNGDTSRLAVRKAQYHWGWDWGPVLMTAGIWRPIVLEVYTARVVDLWAQTQLAADHQSAGITAVAKFDNASGGDFTARFSLSLNGNEIAAEEVPVSSENQAKMTVKVDNPKLWWPHGYGEQTLYKISVSLRRGNTQVAESSKNFGIRTAEVIQQPDKHGKSFYFRINGMDIFCGGSCWIPTDSLLTNVSADRYRKWIQLMVEGRQIMIRVWGGGIYEDAAFYEACDELGVLVWQDFMFGCGNYPTWPSLLESIREEAIYNVQRLRHHPSIVIWVGNNEDYQVQESEGLTYNYEDKDPESWLKTNFPARYIYEKLLPEVVAENSPSTFYHPGSPWGDGKKSSDTTVGDMHQWNVWHGTQEKYQIFDTLGGRFNSEFGMEAFPHLSTIEYFVEDPKDLFPQSHVIDFHNKADGHERRLATYLVENLRTATDLETYIYLTQVVQAETMMFGYRGWRRQWGDERHCGGALLWQLNDCWPTISWAIADYFLNPKPAYYAVKRVLNPIAVGVRREHHDWSVAHAQPPRTSKYELWVSSNNPEAVRGSIELRFLSVNTGRDIRTPILREDIVLTANGTTNIITDGLLDHIAEPEPHVLAARLWVDHKVVARDVDWPQPFKYLNLSDRGLEVQLKRSSPEKATLIVNSRKPVKCLVIEEQEGVRISDNAIDIVPGDEQVIEVTGLGDKSLKFRYLGQECVELVQ
- binding: binds
